No constants are given. Whether binding was seen depends on the method and setting. Some results given as binding are weak or reduced against the parent protein; the word gives no strength.
Molecular target: RAGE-Fc chimera protein (BioTechne, 1145-RG) (UniProt Q15109)
Assay: BLI: RAGE-Fc on AHC sensors, HMGB1 construct 0-25 µM in solution; response against concentration

Chains of the proteins cited; added tags and fusions are not shown. Lines headed by an entry give the natural chain unless they say otherwise; changes in a name come on top. Residues count along the entry.
UniProt Q15109, residues 24-344: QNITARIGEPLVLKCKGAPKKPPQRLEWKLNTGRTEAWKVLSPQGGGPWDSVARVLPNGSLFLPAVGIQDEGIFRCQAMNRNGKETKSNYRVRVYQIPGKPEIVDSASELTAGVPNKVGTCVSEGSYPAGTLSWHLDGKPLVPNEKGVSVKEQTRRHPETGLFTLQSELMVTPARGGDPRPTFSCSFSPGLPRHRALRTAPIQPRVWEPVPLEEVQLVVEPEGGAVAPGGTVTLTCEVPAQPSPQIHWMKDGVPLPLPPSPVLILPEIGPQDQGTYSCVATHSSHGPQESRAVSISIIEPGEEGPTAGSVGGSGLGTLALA
UniProt P09429: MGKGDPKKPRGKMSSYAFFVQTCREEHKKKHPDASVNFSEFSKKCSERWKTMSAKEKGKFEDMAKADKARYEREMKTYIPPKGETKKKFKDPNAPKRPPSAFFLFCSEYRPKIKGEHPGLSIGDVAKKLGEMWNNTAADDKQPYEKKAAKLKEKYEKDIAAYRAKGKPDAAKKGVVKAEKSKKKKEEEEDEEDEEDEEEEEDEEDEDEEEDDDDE

Question: With “DS-HMGB1 1-164 (from UniProt P09429 2-165) (ligand)” as the substance, how does the binding read?
Answer: The binding was “binds”.

Question: With “DS-HMGB1 1-184 (from UniProt P09429 2-185) (ligand)” as the substance, how does the binding read?
Answer: Its binding is “binds”.

Question: How did the binding turn out when “disulfide HMGB1, full-length (from UniProt P09429 2-215) (ligand)” was run?
Answer: Its binding is “binds”.

Question: How did the binding turn out when “fully-reduced HMGB1, full-length (1-214) (from UniProt P09429 2-215) (ligand)” was run?
Answer: Its binding is “binds”.

Molecular target: RAGE-Fc chimera protein (BioTechne, 1145-RG) (UniProt Q15109)
Assay: RAGE binding ELISA

Question: For “disulfide HMGB1, full-length (from UniProt P09429 2-215) (ligand)”, which binding is on record?
Answer: Its binding is “binds”.

Question: Which binding does the source give for “fully-reduced HMGB1, full-length (1-214) (from UniProt P09429 2-215) (ligand)” here?
Answer: Its binding is “binds”.

Molecular target: RAGE-Fc chimera protein (BioTechne, 1145-RG) (UniProt Q15109)
Assay: hybrid ELISA, saturation fits (FIG. 8A)

Question: “disulfide HMGB1, full-length (from UniProt P09429 2-215) (ligand)” was tested. Which binding did it give?
Answer: Its binding is “binds”.

Question: Which binding does the source give for “fully-reduced HMGB1, full-length (1-214) (from UniProt P09429 2-215) (ligand)” here?
Answer: The binding was “binds”.

Molecular target: RAGE-Fc chimera protein (BioTechne, 1145-RG) (UniProt Q15109)
Assay: RAGE binding ELISA and BLI

Question: Which binding does the source give for “fully-reduced HMGB1, full-length (1-214) (from UniProt P09429 2-215) (ligand)” here?
Answer: The binding was “binds”.

Molecular target: RAGE-Fc chimera protein (BioTechne, 1145-RG) (UniProt Q15109)
Assay: hybrid ELISA: HMGB1 construct coated, RAGE-Fc titrated, anti-human IgG-HRP, OD450 normalized to DS-HMGB1

Question: With “DS-HMGB1 1-164 (from UniProt P09429 2-165) (ligand)” as the substance, how does the binding read?
Answer: The binding was “binds”.

Question: “DS-HMGB1 1-184 (from UniProt P09429 2-185) (ligand)” was tested. Which binding did it give?
Answer: Its binding is “binds”.

Question: For “disulfide HMGB1, full-length (from UniProt P09429 2-215) (ligand)”, which binding is on record?
Answer: Its binding is “binds”.

Question: Which binding does the source give for “fully-reduced HMGB1, full-length (1-214) (from UniProt P09429 2-215) (ligand)” here?
Answer: The binding was “binds”.

Molecular target: RAGE-Fc chimera protein (BioTechne, 1145-RG) (UniProt Q15109)
Assay: RAGE binding ELISA, HMGB1 coated at 40 nM, RAGE-Fc 0-640 nM

Question: How did the binding turn out when “DS-HMGB1 1-164 (from UniProt P09429 2-165) (ligand)” was run?
Answer: Its binding is “binds”.

Question: How did the binding turn out when “DS-HMGB1 1-184 (from UniProt P09429 2-185) (ligand)” was run?
Answer: Its binding is “binds”.

Question: For “disulfide HMGB1, full-length (from UniProt P09429 2-215) (ligand)”, which binding is on record?
Answer: Its binding is “binds”.

Question: “fully-reduced HMGB1, full-length (1-214) (from UniProt P09429 2-215) (ligand)” was tested. Which binding did it give?
Answer: Its binding is “binds”.

Molecular target: RAGE-Fc chimera protein (BioTechne, 1145-RG) (UniProt Q15109)
Assay: BLI, RAGE-Fc on AHC sensors, HMGB1 construct 0-25 µM

Question: For “DS-HMGB1 1-164 (from UniProt P09429 2-165) (ligand)”, which binding is on record?
Answer: Its binding is “binds”.

Question: For “DS-HMGB1 1-184 (from UniProt P09429 2-185) (ligand)”, which binding is on record?
Answer: The binding was “binds”.

Question: How did the binding turn out when “disulfide HMGB1, full-length (from UniProt P09429 2-215) (ligand)” was run?
Answer: The binding was “binds”.

Question: With “fully-reduced HMGB1, full-length (1-214) (from UniProt P09429 2-215) (ligand)” as the substance, how does the binding read?
Answer: Its binding is “binds”.

Molecular target: RAGE-Fc chimera protein (BioTechne, 1145-RG) (UniProt Q15109)
Assay: BLI interferograms: RAGE-Fc on AHC sensors, HMGB1 construct in rising concentration (two series, six sensors)

Question: For “DS-HMGB1 1-164 (from UniProt P09429 2-165) (ligand)”, which binding is on record?
Answer: Its binding is “binds”.

Question: Which binding does the source give for “DS-HMGB1 1-184 (from UniProt P09429 2-185) (ligand)” here?
Answer: The binding was “binds”.

Question: How did the binding turn out when “disulfide HMGB1, full-length (from UniProt P09429 2-215) (ligand)” was run?
Answer: The binding was “binds”.

Question: With “fully-reduced HMGB1, full-length (1-214) (from UniProt P09429 2-215) (ligand)” as the substance, how does the binding read?
Answer: Its binding is “binds”.
